Some results were stated once for a whole list of compounds, not compound by compound.
Key:
[1] = biological target: T1, recombinant bHLHZip domain of the MYC protein (Homo sapiens, UniProt P01106); experiment: surface plasmon resonance (SPR), MYC bHLHZip; type: binding
T1 construct: using the recombinant bHLHZip domain of the MYC protein; 6xHis (N); made in house; host or cells: E. coli BL21 (DE3)
Description: FIG. 1: MYCMI-7 (Compound Example 1) inhibits the MYC:MAX interaction in cells, bind MYC in vitro, and blocks MYC function. A) Molecular structure of MYCMI-7. B-E) split Gaussia luciferase (GLuc) assay. MYC or MYCN and MAX Gluc constructs were co-transfected into HeLa cells together with a firefly luciferase vector. 24 hours post transfection cells were treated with compounds, and after another 17-24 hours cells were harvested and both GLuc and firefly luciferase activities were measured. The mean of three different experiments is shown. Treatment with: B) 5 μM of MYCMI-7, 64 μM 10058-F4 or 5 μM JQ1, respectively, C) 6.5 μM MYCMI-7 on cells expressing MYC:MAX GLuc vs. GCN4:GCN4 GLuc, D) 5 μM MYCMI-7 and 5 μM ellipticine. E) 5 μM MYCMI-7 for various time points. F) in situ proximity ligation assay (isPLA). […] MYC:GAL4 was used as negative control in the isPLA assay. G) Quantification of isPLA dots. (H) Co-immunoprecipitation (co-IP) of endogenous MYC and MAX proteins from MCF7 cells after treatment with 5 μM MYCMI-7 at various times. IP=immunoprecipitation; W=western blot. I) Chromatin immunoprecipitation (ChIP) of MYC at the ODC1 target gene promoter after treatment of cells with 5 μM MYCMI-7 for 6 hours. J) MYC target gene ODC1 expression after treatment with 5 μM MYCMI-7, quantified by qPCR. K) ChIP of MYC at the ODC promoter in MCF7 cells after 5 μM MYCMI-7 treatment for indicated time points. L) Recombinant MYC bHLHZip protein domain immobilized onto a CM5 chip was subjected to various concentrations of MYCMI-7 and the complex of MYCbHLHZip-MYCMI-7 was measured as response units by SPR. The sensogram was produced by subtracting the blank response.
Recombinant proteins: Recombinant proteins containing His-tagged N-termini were over-expressed in E. coli BL21 (DE3) bacteria (Stratagene) at 37° C. in 2XTY, or LB, media with kanamycin, and were purified on a Ni-NTA (Qiagen) affinity bench column, or using a HisTrap HP column (5 mL) with an AKTA system. The purifications were carried out according to manufacturer instructions. All the proteins were dialyzed against PBS, pH 7, at 5° C. overnight. The purity of the proteins was confirmed by SDS-PAGE analysis and Mass Spectrometry analysis.
Surface plasmon resonance (SPR): The SPR experiments were performed at 25° C. using a Biacore T200 (GE Healthcare) instrument kindly provided by SciLifeLab Solna. An amino coupling procedure was used to immobilize protein on a CM5 sensor chip (GE Healthcare). Sensorgrams were generated by subtraction of the reference (blank immobilized) surface. The MYC SPR assay was carried out as described above with MYCbHLHZip immobilized to a level of 800-1000 RU. For kinetic binding experiments, a Langmuir 1:1 binding event was applied using the Biacore T200 Evaluation Software 2.0 (GE Healthcare) to determine association (ka) and dissociation (kd) constants of the compound and to calculate affinity (KD) by the formula; K=kd/ka. Binding responses from equilibrium binding experiments were plotted against compound concentration and KD values were determined at 50% of the theoretical Rmax with the formula Rmax=(MW analyte/MW ligand)×immobilized ligand level on the chip (RU)×stoichiometry (1:1). Same coupling method described above was used to immobilize the control proteins. MAX was immobilized to approximately 2000 RU.

By UniProt entry, the sequences of proteins in these tests, tags left out. Residues count along the entry.
UniProt P01106, 368-454 limits assumed: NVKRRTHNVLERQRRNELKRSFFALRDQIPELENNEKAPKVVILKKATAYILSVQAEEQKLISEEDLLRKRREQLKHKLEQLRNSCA

[2] = tested on: Rat1 fibroblasts TGR1 (wt MYC) and HOMyc3 (reconstituted MYC); experiment: WST-1 growth/viability assay, MYC-expressing Rat1 fibroblasts; type: cell-based, rat
[3] = MYC wt (TGR), MYC knockout (HO1519) and MYC-reconstituted (Myc3) rat cells
[4] = MYC wt (TGR) and MYC knockout (HO1519) rat cells

## COc1ccc2[nH]c3c(C)c4cc[n+](C)cc4c(C)c3c2c1 [Example 2]
[1]
  binding to recombinant MYC by SPR: bind recombinant MYC

## Cc1c2cc[n+](C)cc2c(C)c2c1[nH]c1ccc(Cl)cc12 [Example 3]
[1]
  binding to recombinant MYC by SPR: bind recombinant MYC

## Cc1ccc2[nH]c3c(C)c4cc[n+](C)cc4c(C)c3c2c1 [Example 4]
[1]
  binding to recombinant MYC by SPR: bind recombinant MYC

## CCN(CC)CC[n+]1ccc2c(C)c3[nH]c4ccc(O)cc4c3c(C)c2c1 [Example 5]
[1]
  binding to recombinant MYC by SPR: bind recombinant MYC
[2]; [3]
  tumor cell growth/viability, MYC-dependence: reduce tumor cell growth/viability in a MYC-dependent manner

## Cc1c2cc[n+](CCN3CCCCC3)cc2c(C)c2c1[nH]c1ccc(O)cc12 [Example 6]
[1]
  binding to recombinant MYC by SPR: bind recombinant MYC
[2]; [3]
  tumor cell growth/viability, MYC-dependence: reduce tumor cell growth/viability in a MYC-dependent manner

## Cc1c2cc[n+](C)cc2c(C)c2c1[nH]c1ccccc12.[I-] [Example 7, 2,5,11-Trimethyl-6H-pyrido[4,3-b]carbazol-2-ium iodide]
[1]
  binding to recombinant MYC by SPR: bind recombinant MYC
[2]; [4]
  tumor cell growth/viability, MYC-dependence: reduce tumor cell growth/viability in a MYC-dependent manner

## CCCCCC[n+]1ccc2c(C)c3[nH]c4ccccc4c3c(C)c2c1.[I-] [Example 8, 2-Hexyl-5,11-dimethyl-6H-pyrido[4,3-b]carbazol-2-ium iodide]
[1]
  binding to recombinant MYC by SPR: bind recombinant MYC
[2]; [4]
  tumor cell growth/viability, MYC-dependence: reduce tumor cell growth/viability in a MYC-dependent manner

## Cc1c2cc[n+](CCc3ccccc3)cc2c(C)c2c1[nH]c1ccccc12.[I-] [Example 9, 5,11-Dimethyl-2-(2-phenylethyl)-6H-pyrido[4,3-b]carbazol-2-ium iodide]
[1]
  binding to recombinant MYC by SPR: bind recombinant MYC
[2]; [4]
  tumor cell growth/viability, MYC-dependence: reduce tumor cell growth/viability in a MYC-dependent manner

## Cc1c2cc[n+](CC(N)=O)cc2c(C)c2c1[nH]c1ccccc12.[I-] [Example 10, 2-(Carbamoylmethyl)-5,11-dimethyl-6H-pyrido[4,3-b]carbazol-2-ium iodide]
[1]
  binding to recombinant MYC by SPR: bind recombinant MYC
[2]; [4]
  tumor cell growth/viability, MYC-dependence: reduce tumor cell growth/viability in a MYC-dependent manner
